Laboratory results reported in paper PMC8023213.
Results are given in words; binding and its absence hold for the method and conditions named. Binding calls can cover weak binding; strength is not graded here. For some assays here: In cells and extracts the contact can be indirect. For some assays here: Where a sequence is shown, tags or fusion partners need not be part of it. Each block holds one binder with its values, some of them ahead of it.

Columns and labels:
[1] = biological target: MIO1-nYFP (M. truncatula); test: split reporter; BiFC: N-terminal YFP and C-terminal YFP fusions co-infiltrated 1:1 by A. tumefaciens into tobacco leaves; fluorescence at 48 h by confocal microscopy
[2] = biological target: WD40 repeat domain of MIO1/SLB1, yeast two-hybrid bait (M. truncatula); test: two-hybrid; bait in pGBKT7 and prey in pGADT7 co-transformed into Y2H Gold yeast; grown on SD/-Leu-Trp three days at 30 °C; interaction detected on SD/-Ade/-His/-Leu/-Trp

binding [1]: binds
B1: BS1-cYFP (protein, UniProt A0A190V5K9 1-330)
chain: MNGGSTVSFRSILDRPLNQLTEDDISQLTREDCRRFLKDKGMRRPSWNKSQAIQQVISLKALLEPTDDDIPATVGVGVSSAIHHHHHHHPPQPPPKALDPEDTALELQKSTSPVAERPTETNDANVVNNPGGCAPSGSFGQMTIFYCGKVNVYDGVSPDKARSIMQLAAACPSSFPQDNPSNKNAAVWASPCNLPIDKEVLFPTDTAILQVAQTDKMVEYPLQYREKGSTARDADVEGQASRKVSLQRYLEKRKDRGRSKGKKLTGITSSNFEMYLNLPVKLHASNGNSSRSSTDSPPQPRLPLVSSGSAENQPKVTLPIDLNDKDVQEC

binding [2]: binds
B2: BIG SEEDS1 (BS1), yeast two-hybrid prey (protein, UniProt A0A190V5K9 1-330)
chain: B1 chain
